The list shows a part of the results.
Experiments:
Assay in all cases: log2 fold change, soluble protein after heating vs DMSO (PISA); higher = thermal stabilisation; K562 lysate, 10 uM; active = over 0.2 and 3.5 SD of the protein, either way, in both replicates (recomputed)
alvocidib = compound: CN1CC[C@H](c2c(O)cc(O)c3c(=O)cc(-c4ccccc4Cl)oc23)[C@H](O)C1 [alvocidib]
Summary of the method: (§1)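 To prepare the extract, K562 pellets were dounce-homogenised in PBS pH 7.4 with 1 mM MgCl2, giving crude material at 1 mg/mL protein. This was treated with 10 μM compound for 30 min, then heated in aliquots for 3 min over 48°C-58°C before pooling and addition of NP-40 to 0.5% at 4°C. Centrifugation at 21,000xg for 90 min left soluble protein in the supernatant, which TMTpro 16plex LC-MS/MS quantified with equalised channel sums. Results are log-two fold changes in thermal stability compared with solvent controls, from duplicates.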

Protein sequences, listed by entry. Tags and fused reporters are not part of them. Lines headed by an entry give the natural chain unless they say otherwise; changes in a name come on top.
UniProt Q9H0R8, whole entry, looked up: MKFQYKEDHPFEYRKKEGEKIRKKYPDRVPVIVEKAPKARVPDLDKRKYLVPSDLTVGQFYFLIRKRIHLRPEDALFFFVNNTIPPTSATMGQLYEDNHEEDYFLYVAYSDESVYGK
UniProt Q9UPW0: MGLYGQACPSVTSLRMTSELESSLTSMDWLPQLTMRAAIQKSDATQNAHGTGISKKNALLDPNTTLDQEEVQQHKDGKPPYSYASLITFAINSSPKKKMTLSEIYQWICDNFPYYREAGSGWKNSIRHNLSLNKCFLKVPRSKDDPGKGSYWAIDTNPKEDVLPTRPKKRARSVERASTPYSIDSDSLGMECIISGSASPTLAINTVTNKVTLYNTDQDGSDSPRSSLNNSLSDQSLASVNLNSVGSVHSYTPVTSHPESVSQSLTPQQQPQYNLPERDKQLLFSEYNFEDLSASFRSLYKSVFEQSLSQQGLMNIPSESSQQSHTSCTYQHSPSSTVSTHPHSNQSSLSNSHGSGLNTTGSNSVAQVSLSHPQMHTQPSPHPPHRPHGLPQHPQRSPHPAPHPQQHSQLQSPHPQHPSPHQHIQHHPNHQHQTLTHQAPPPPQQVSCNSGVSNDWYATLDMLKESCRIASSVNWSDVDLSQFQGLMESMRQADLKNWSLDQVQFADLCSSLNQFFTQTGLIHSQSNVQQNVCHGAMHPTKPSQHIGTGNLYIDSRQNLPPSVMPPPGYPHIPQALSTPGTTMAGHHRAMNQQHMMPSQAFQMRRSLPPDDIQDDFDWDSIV
UniProt Q86YP4: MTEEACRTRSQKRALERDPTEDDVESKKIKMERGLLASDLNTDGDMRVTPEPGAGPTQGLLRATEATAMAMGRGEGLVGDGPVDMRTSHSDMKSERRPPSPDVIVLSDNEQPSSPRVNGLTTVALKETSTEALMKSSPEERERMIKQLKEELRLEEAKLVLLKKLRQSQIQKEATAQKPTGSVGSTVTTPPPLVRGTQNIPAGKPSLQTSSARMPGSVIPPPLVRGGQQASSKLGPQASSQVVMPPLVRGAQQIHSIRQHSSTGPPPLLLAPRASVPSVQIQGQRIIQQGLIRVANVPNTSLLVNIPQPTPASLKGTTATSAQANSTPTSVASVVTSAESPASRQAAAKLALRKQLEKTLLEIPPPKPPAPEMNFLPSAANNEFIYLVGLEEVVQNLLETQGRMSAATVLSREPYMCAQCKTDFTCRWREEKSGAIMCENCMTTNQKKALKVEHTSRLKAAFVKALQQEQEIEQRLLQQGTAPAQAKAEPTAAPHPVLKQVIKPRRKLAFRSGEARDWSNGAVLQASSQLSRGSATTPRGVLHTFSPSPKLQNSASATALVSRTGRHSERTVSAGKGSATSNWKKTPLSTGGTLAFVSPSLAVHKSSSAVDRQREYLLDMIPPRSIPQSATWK
UniProt Q96C23: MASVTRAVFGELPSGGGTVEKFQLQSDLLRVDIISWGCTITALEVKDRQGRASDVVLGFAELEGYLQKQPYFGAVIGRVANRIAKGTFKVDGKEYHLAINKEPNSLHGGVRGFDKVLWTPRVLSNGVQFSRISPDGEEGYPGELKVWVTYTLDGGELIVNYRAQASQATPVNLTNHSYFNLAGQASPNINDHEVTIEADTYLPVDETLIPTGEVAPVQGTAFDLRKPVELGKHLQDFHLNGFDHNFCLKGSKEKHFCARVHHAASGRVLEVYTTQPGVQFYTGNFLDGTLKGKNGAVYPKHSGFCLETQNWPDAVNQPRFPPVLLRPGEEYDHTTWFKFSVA
UniProt Q6ZNW5: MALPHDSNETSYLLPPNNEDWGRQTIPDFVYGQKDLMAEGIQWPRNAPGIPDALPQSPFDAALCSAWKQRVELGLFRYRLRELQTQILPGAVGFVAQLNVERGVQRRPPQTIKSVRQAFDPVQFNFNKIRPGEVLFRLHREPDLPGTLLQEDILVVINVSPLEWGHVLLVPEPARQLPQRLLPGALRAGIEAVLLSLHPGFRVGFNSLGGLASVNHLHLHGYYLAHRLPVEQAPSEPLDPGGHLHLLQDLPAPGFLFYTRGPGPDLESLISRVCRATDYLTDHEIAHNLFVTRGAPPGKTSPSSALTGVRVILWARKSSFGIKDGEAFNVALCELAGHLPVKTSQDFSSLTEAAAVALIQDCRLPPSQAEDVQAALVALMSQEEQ
UniProt Q96CU9: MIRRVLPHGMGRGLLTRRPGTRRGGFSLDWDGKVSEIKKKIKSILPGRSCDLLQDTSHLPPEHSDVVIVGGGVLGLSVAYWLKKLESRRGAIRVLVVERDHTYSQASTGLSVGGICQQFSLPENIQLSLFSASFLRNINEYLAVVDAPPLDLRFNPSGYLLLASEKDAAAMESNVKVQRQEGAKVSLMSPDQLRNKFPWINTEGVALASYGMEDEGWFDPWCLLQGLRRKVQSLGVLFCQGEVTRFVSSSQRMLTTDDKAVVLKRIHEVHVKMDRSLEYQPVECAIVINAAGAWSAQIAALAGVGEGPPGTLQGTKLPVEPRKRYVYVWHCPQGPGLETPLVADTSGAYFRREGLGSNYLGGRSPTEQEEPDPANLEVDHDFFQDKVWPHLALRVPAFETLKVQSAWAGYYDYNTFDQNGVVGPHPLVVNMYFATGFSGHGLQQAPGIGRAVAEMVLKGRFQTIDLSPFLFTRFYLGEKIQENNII
UniProt Q9UET6: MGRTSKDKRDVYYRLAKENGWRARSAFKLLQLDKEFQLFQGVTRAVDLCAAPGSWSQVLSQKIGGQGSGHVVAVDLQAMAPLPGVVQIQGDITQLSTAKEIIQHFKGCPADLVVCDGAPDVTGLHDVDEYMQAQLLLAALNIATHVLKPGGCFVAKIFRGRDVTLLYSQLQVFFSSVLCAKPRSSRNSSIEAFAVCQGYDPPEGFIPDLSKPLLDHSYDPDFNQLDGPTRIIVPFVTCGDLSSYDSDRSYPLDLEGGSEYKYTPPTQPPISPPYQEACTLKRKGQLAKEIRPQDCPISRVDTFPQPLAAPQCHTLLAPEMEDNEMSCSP
UniProt P50395: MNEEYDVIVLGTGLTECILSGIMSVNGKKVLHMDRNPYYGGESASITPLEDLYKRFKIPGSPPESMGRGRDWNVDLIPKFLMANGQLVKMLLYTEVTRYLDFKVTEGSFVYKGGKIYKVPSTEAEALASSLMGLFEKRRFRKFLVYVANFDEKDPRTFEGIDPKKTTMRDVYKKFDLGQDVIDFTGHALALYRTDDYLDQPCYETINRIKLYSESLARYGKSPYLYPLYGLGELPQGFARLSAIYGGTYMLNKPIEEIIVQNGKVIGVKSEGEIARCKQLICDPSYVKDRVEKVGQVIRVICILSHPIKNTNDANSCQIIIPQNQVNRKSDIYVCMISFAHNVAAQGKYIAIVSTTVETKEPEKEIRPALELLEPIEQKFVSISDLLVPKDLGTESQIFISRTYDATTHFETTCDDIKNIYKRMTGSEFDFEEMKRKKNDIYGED
UniProt P54803: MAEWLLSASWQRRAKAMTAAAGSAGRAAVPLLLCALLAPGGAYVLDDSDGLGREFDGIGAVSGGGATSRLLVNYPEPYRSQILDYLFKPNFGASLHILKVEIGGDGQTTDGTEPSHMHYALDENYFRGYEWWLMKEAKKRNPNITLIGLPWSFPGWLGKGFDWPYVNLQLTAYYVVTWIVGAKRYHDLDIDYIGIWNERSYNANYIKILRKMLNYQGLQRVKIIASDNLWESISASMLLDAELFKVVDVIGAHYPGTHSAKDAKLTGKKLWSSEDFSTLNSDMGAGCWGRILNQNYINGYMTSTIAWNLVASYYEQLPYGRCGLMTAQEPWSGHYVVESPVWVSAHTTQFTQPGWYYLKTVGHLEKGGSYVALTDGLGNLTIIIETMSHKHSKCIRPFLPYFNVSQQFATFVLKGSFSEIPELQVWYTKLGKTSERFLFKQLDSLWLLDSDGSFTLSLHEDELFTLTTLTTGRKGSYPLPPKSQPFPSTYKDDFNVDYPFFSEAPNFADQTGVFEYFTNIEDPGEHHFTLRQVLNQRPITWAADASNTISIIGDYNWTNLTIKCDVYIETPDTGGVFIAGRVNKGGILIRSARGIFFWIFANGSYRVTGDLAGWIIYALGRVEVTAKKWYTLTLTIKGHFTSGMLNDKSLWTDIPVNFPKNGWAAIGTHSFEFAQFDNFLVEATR
UniProt Q6ZNA5: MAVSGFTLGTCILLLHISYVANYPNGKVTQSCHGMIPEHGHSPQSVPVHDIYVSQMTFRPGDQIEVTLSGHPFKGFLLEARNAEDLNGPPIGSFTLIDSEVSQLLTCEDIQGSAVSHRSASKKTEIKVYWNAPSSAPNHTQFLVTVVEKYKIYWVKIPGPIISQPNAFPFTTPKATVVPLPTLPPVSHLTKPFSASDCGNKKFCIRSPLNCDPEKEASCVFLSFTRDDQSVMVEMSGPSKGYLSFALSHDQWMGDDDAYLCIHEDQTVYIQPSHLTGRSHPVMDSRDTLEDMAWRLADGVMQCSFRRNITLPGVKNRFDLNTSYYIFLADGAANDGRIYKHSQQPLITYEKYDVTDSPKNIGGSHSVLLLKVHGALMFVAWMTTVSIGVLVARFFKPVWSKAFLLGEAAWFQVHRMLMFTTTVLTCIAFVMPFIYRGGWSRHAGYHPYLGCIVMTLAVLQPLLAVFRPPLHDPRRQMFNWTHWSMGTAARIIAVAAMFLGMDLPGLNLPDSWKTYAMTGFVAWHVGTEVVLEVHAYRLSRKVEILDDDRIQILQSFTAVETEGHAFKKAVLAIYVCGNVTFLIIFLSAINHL
UniProt O14976: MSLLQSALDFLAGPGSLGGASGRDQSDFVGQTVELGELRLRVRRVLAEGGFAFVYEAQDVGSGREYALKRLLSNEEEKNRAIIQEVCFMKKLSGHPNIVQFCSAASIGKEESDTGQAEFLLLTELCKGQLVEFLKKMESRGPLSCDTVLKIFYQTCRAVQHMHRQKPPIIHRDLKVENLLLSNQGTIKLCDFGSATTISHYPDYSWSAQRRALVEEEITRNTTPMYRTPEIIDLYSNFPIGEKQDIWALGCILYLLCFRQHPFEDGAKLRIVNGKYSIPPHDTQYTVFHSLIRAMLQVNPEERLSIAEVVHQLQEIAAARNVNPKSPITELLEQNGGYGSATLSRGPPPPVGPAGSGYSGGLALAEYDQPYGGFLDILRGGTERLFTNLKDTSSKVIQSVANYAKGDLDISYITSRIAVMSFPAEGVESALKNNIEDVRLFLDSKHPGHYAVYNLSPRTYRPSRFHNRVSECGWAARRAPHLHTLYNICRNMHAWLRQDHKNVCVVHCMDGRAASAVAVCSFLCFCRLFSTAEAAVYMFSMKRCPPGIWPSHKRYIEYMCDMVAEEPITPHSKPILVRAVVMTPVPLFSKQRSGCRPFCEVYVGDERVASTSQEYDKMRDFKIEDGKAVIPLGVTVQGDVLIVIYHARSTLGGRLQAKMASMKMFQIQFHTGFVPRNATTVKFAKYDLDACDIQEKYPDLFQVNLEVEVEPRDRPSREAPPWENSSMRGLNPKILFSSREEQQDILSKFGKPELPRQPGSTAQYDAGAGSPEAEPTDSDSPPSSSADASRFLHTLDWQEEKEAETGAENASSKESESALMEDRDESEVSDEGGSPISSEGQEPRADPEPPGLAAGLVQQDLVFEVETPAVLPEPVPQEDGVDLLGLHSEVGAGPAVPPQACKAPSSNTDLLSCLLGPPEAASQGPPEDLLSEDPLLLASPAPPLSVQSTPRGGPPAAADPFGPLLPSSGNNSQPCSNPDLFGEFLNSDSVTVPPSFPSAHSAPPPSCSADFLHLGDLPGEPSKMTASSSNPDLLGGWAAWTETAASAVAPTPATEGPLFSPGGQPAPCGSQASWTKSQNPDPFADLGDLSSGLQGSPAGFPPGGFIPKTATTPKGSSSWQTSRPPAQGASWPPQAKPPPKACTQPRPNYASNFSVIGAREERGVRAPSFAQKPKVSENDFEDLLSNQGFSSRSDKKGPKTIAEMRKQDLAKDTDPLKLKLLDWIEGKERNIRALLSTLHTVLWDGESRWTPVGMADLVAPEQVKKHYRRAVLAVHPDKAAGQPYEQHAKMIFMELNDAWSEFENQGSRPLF
UniProt Q96AE4: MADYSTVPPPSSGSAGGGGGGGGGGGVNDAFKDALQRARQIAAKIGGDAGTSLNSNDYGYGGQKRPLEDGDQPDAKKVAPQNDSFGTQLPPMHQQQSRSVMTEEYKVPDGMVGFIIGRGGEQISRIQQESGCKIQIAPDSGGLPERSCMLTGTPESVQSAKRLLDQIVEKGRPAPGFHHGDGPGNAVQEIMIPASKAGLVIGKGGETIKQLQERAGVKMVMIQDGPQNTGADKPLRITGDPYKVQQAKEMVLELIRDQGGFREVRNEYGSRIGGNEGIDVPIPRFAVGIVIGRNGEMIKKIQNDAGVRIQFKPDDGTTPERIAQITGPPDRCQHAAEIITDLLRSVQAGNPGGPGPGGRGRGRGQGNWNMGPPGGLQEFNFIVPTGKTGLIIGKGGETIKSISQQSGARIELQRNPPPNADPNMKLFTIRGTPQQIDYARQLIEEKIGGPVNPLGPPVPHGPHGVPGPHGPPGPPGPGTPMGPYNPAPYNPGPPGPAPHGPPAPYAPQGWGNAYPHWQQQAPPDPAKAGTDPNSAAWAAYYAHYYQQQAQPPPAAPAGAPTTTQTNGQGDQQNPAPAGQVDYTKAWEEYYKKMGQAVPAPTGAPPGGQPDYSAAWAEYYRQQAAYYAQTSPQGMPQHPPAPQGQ

Tubastatin A = compound: CN1CCc2c(c3ccccc3n2Cc2ccc(C(=O)NO)cc2)C1 [Tubastatin A]
Summary of the method: as §1

[1] = compound: CNC(=O)C1=CC=CC=C1NC2=NC(=NC=C2Cl)NC3=C(C=C(C=C3)N4CCOCC4)OC
Summary of the method: as §1

defactinib = compound: CNC(=O)c1ccc(Nc2ncc(C(F)(F)F)c(NCc3nccnc3N(C)S(C)(=O)=O)n2)cc1 [defactinib]
Summary of the method: as §1

[2] = compound: CNc1nc(-c2ccc3c(N)n[nH]c3c2)cc(N2C[C@@H](C(=O)NC3CCCCC3)CC[C@H]2C)n1
Summary of the method: as §1

encorafenib = compound: COC(=O)N[C@@H](C)CNc1nccc(-c2cn(C(C)C)nc2-c2cc(Cl)cc(NS(C)(=O)=O)c2F)n1 [encorafenib]
Summary of the method: as §1

[3] = compound: COC(=O)[C@H](CCSC)NC(=O)C1=C(C=C(C=C1)NC[C@H](CS)N)C2=CC=CC=C2
Summary of the method: as §1

alisertib = compound: COc1cc(Nc2ncc3c(n2)-c2ccc(Cl)cc2C(c2c(F)cccc2OC)=NC3)ccc1C(=O)O [alisertib]
Summary of the method: as §1

[4] = compound: COc1cc2nc(-c3cc(F)ccc3O)nc(N[C@@H]3CNC[C@H]3C(C)(C)O)c2cc1OC
Summary of the method: as §1

gefitinib = compound: COc1cc2ncnc(Nc3ccc(F)c(Cl)c3)c2cc1OCCCN1CCOCC1 [gefitinib]
Summary of the method: as §1

lapatinib = compound: CS(=O)(=O)CCNCc1ccc(-c2ccc3ncnc(Nc4ccc(OCc5cccc(F)c5)c(Cl)c4)c3c2)o1 [lapatinib]
Summary of the method: as §1

pictilisib = compound: CS(=O)(=O)N1CCN(Cc2cc3nc(-c4cccc5[nH]ncc45)nc(N4CCOCC4)c3s2)CC1 [pictilisib]
Summary of the method: as §1

crizotinib = compound: C[C@@H](Oc1cc(-c2cnn(C3CCNCC3)c2)cnc1N)c1c(Cl)ccc(F)c1Cl [crizotinib]
Summary of the method: as §1

[5] = compound: C[C@H](C1=CC=C(C=C1)C(=O)NC2=C3C=CNC3=NC=C2)N
Summary of the method: as §1

duvelisib = compound: C[C@H](Nc1ncnc2nc[nH]c12)c1cc2cccc(Cl)c2c(=O)n1-c1ccccc1 [duvelisib]
Summary of the method: as §1

gandotinib = compound: Cc1cc(Nc2cc(CN3CCOCC3)c3nc(C)c(Cc4ccc(Cl)cc4F)n3n2)n[nH]1 [gandotinib]
Summary of the method: as §1

tozasertib = compound: Cc1cc(Nc2cc(N3CCN(C)CC3)nc(Sc3ccc(NC(=O)C4CC4)cc3)n2)n[nH]1 [tozasertib]
Summary of the method: as §1

doramapimod = compound: Cc1ccc(-n2nc(C(C)(C)C)cc2NC(=O)Nc2ccc(OCCN3CCOCC3)c3ccccc23)cc1 [doramapimod]
Summary of the method: as §1

bafetinib = compound: Cc1ccc(NC(=O)c2ccc(CN3CC[C@H](N(C)C)C3)c(C(F)(F)F)c2)cc1Nc1nccc(-c2cncnc2)n1 [bafetinib]
Summary of the method: as §1

[6] = compound: Cc1cccc(CC(=O)N2CCc3c2ccc(-c2cn(C)c4ncnc(N)c24)c3F)n1
Summary of the method: as §1

Measured: log2 fold change

GAR1 (UniProt Q9NY12)
inactive: alvocidib 0.053 | Tubastatin A -0.009 | [1] -0.012 | defactinib -0.021 | [2] 0.081 | encorafenib -0.024 | [3] 0.03 | alisertib -0.001 | [4] 0 | gefitinib -0.033 | lapatinib -0.019 | pictilisib -0.011 | crizotinib -0.024 | [5] 0.103 | duvelisib 0.043 | gandotinib -0.094 | tozasertib -0.032 | doramapimod -0.01 | bafetinib -0.044 | [6] -0.098

GABARAPL1 isoform 2 (UniProt Q9H0R8)
inactive: alvocidib 0.011 | Tubastatin A 0.057 | [1] -0.03 | defactinib -0.119 | [2] 0.096 | encorafenib -0.055 | [3] -0.005 | alisertib 0.015 | [4] 0.002 | gefitinib -0.006 | lapatinib -0.01 | pictilisib 0.167 | crizotinib -0.011 | [5] 0.02 | duvelisib 0.01 | gandotinib 0.017 | tozasertib 0.026 | doramapimod 0.089 | bafetinib 0.143 | [6] -0.078

FOXJ3 (UniProt Q9UPW0)
inactive: alvocidib -0.009 | Tubastatin A -0.03 | [1] -0.031 | defactinib 0.014 | [2] 0.033 | encorafenib 0.055 | [3] -0.137 | alisertib -0.028 | [4] 0 | gefitinib 0.054 | lapatinib 0.039 | pictilisib -0.049 | crizotinib -0.053 | [5] 0.101 | duvelisib 0.035 | gandotinib -0.042 | tozasertib 0.021 | doramapimod 0 | bafetinib -0.139 | [6] -0.003

GATAD2A isoform 3 (UniProt Q86YP4)
inactive: alvocidib -0.028 | Tubastatin A -0.045 | [1] 0.015 | defactinib 0 | [2] 0.025 | encorafenib 0.005 | [3] 0.072 | alisertib 0.006 | [4] 0.01 | gefitinib -0.023 | lapatinib -0.012 | pictilisib -0.031 | crizotinib -0.011 | [5] -0.031 | duvelisib -0.037 | gandotinib 0.016 | tozasertib -0.009 | doramapimod 0.026 | bafetinib 0.001 | [6] 0.061

GALM (UniProt Q96C23)
inactive: alvocidib -0.023 | Tubastatin A 0.015 | [1] -0.016 | defactinib -0.024 | [2] 0.009 | encorafenib -0.019 | [3] 0.056 | alisertib -0.028 | [4] -0.013 | gefitinib 0.009 | lapatinib 0.007 | pictilisib 0.012 | crizotinib -0.051 | [5] -0.01 | duvelisib 0.01 | gandotinib -0.006 | tozasertib 0.061 | doramapimod -0.006 | bafetinib 0.058 | [6] 0.037

GDPGP1 (UniProt Q6ZNW5)
inactive: alvocidib -0.03 | Tubastatin A 0.008 | [1] 0.02 | defactinib -0.011 | [2] 0.015 | encorafenib 0.03 | [3] 0.019 | alisertib -0.099 | [4] 0.008 | gefitinib -0.044 | lapatinib 0.008 | pictilisib -0.005 | crizotinib 0.083 | [5] 0.003 | duvelisib -0.043 | gandotinib 0.048 | tozasertib -0.015 | doramapimod 0.005 | bafetinib -0.036 | [6] 0.115

FOXRED1 (UniProt Q96CU9)
inactive: alvocidib -0.031 | Tubastatin A -0.026 | [1] 0.004 | defactinib -0.002 | [2] 0.042 | encorafenib 0.009 | [3] -0.039 | alisertib 0.025 | [4] 0.072 | gefitinib -0.012 | lapatinib -0.012 | pictilisib 0.001 | crizotinib 0.003 | [5] -0.031 | duvelisib -0.016 | gandotinib 0.015 | tozasertib 0.039 | doramapimod 0.041 | bafetinib -0.016 | [6] 0.067

FTSJ1 (UniProt Q9UET6)
inactive: alvocidib 0.003 | Tubastatin A -0.038 | [1] 0.049 | defactinib -0.021 | [2] -0.016 | encorafenib -0.025 | [3] 0.089 | alisertib 0.004 | [4] 0.005 | gefitinib -0.001 | lapatinib 0.01 | pictilisib -0.002 | crizotinib -0.051 | [5] 0.051 | duvelisib -0.009 | gandotinib -0.088 | tozasertib -0.064 | doramapimod 0.03 | bafetinib 0.041 | [6] -0.052

GFER (UniProt P55789)
inactive: alvocidib -0.008 | Tubastatin A 0.068 | [1] -0.152 | defactinib 0.086 | [2] -0.04 | encorafenib 0.036 | [3] -0.073 | alisertib 0.101 | [4] 0.003 | gefitinib 0 | lapatinib -0.025 | pictilisib -0.025 | crizotinib -0.008 | [5] 0.072 | duvelisib -0.087 | gandotinib -0.006 | tozasertib 0.058 | doramapimod 0.015 | bafetinib -0.065 | [6] -0.059

GDI2 (UniProt P50395)
inactive: alvocidib 0.048 | Tubastatin A 0.043 | [1] -0.023 | defactinib 0.004 | [2] -0.021 | encorafenib -0.033 | [3] 0.014 | alisertib 0.02 | [4] 0.01 | gefitinib -0.043 | lapatinib 0.024 | pictilisib 0.027 | crizotinib 0.032 | [5] 0.15 | duvelisib -0.008 | gandotinib -0.072 | tozasertib 0.002 | doramapimod -0.028 | bafetinib 0.139 | [6] -0.062

GALC (UniProt P54803)
inactive: alvocidib -0.002 | Tubastatin A -0.024 | [1] -0.017 | defactinib 0.034 | [2] 0.051 | encorafenib 0.031 | [3] 0.015 | alisertib 0 | [4] 0.039 | gefitinib -0.008 | lapatinib 0.041 | pictilisib 0.016 | crizotinib -0.062 | [5] -0.179 | duvelisib 0.04 | gandotinib 0.024 | tozasertib -0.006 | doramapimod 0.103 | bafetinib -0.048 | [6] 0.041

FRRS1 (UniProt Q6ZNA5)
inactive: alvocidib -0.042 | Tubastatin A 0.004 | [1] 0.019 | defactinib 0.004 | [2] 0.005 | encorafenib -0.038 | [3] -0.058 | alisertib 0.033 | [4] 0.061 | gefitinib 0.06 | lapatinib 0.03 | pictilisib 0.006 | crizotinib -0.006 | [5] -0.154 | duvelisib 0.005 | gandotinib 0.074 | tozasertib 0.013 | doramapimod 0.007 | bafetinib 0.03 | [6] 0.12

Quoted from the listing (2 entries):
GALC (UniProt P54803)
inactive: alvocidib -0.002 | Tubastatin A -0.024 | [1] -0.017 | defactinib 0.034 | [2] 0.051 | encorafenib 0.031 | [3] 0.015 | alisertib 0 | [4] 0.039 | gefitinib -0.008 | lapatinib 0.041 | pictilisib 0.016 | crizotinib -0.062 | [5] -0.179 | duvelisib 0.04 | gandotinib 0.024 | tozasertib -0.006 | doramapimod 0.103 | bafetinib -0.048 | [6] 0.041

FRRS1 (UniProt Q6ZNA5)
inactive: alvocidib -0.042 | Tubastatin A 0.004 | [1] 0.019 | defactinib 0.004 | [2] 0.005 | encorafenib -0.038 | [3] -0.058 | alisertib 0.033 | [4] 0.061 | gefitinib 0.06 | lapatinib 0.03 | pictilisib 0.006 | crizotinib -0.006 | [5] -0.154 | duvelisib 0.005 | gandotinib 0.074 | tozasertib 0.013 | doramapimod 0.007 | bafetinib 0.03 | [6] 0.12

(listing goes on)

GAK (UniProt O14976)
inactive: alvocidib 0.31 | Tubastatin A -0.244 | [1] 0.672 | defactinib 0.165 | [2] 0.239 | encorafenib 0.138 | [3] -0.17 | alisertib -0.056 | [4] 0.183 | gefitinib 0.256 | lapatinib -0.136 | pictilisib 0.062 | crizotinib 0.023 | [5] 0.138 | duvelisib 0.011 | gandotinib 0.09 | tozasertib -0.058 | doramapimod -0.09 | bafetinib 0.394 | [6] -0.152

FUBP1 isoform 2 (UniProt Q96AE4)
inactive: alvocidib -0.038 | Tubastatin A 0.063 | [1] -0.024 | defactinib -0.028 | [2] 0.015 | encorafenib -0.017 | [3] -0.028 | alisertib 0.016 | [4] 0.008 | gefitinib 0.008 | lapatinib 0.006 | pictilisib 0.006 | crizotinib 0.012 | [5] 0.033 | duvelisib -0.006 | gandotinib 0.043 | tozasertib 0.014 | doramapimod 0.017 | bafetinib 0.034 | [6] -0.008

GCHFR (UniProt P30047)
inactive: alvocidib -0.047 | Tubastatin A 0.168 | [1] -0.043 | defactinib -0.025 | [2] 0.167 | encorafenib -0.033 | [3] 0.021 | alisertib -0.041 | [4] 0.033 | gefitinib 0.027 | lapatinib -0.012 | pictilisib -0.023 | crizotinib -0.095 | [5] -0.029 | duvelisib -0.012 | gandotinib 0.112 | tozasertib 0.037 | doramapimod 0.024 | bafetinib 0.03 | [6] 0.032

Source: the supplement of paper PMC10849652
